Source: publication PMC10449621, “Engineering cellular communication between light-activated synthetic cells and bacteria” (Nature Chemical Biology, 2023)
“And” between values parts separate entries of the source, which are not always exact repeats. Equal entries are not always repeated.

Columns and labels:
Assay type in all cases: cell-based, E. coli XL10-Gold
[1] = tested on: BjaRKO receiver cells (pSB1A3–bjaRKO–gfp); test: BjaR receiver cell AHSL dose-response (gfp reporter, plate reader)
Text: (§1) Next, we set out to establish a unidirectional communication pathway by reconstituting the BjaI and BjaR QS machinery, separately, within synthetic cells and E. coli, respectively. As a starting point, IV-HSL-responsive receiver cells were created by transforming E. coli XL10-Gold cells with a reporter plasmid, pSB1A3–bjaR–gfp[28]. This plasmid contained a bjaR gene under the control of a constitutively active J23100 promoter and a gfp gene under the control of a pBjaR promoter. The pBjaR promoter was formed by substituting the lux-box of the pLux promoter with the BjaR-binding site (Supplementary Fig. 10). […] Although this reporter plasmid had been characterized previously, gfp expression was initiated with C4-HSL rather than the cognate ligand, IV-HSL. Thus, we first evaluated the dose–response relationship between synthetic IV-HSL (synthesis described in Methods) and GFP production by BjaR receiver cells. The cells were grown in M9 minimal media to an optical density at 600 nm (OD600) = 0.05, then transferred to a 96-well plate containing IV-HSL and incubated at 37 °C, 800 r.p.m., for 4 h. […] To elucidate the root cause of the high background fluorescence, a BjaRKO variant of the reporter plasmid was constructed. […] Therefore, the high OFF-state was attributed to BjaR-mediated transcription activation in the absence of IV-HSL, rather than host transcription factors recognizing the pBjaR promoter, or transcription factor independent gfp expression.
(§2) The BjaR reporter plasmids were retransformed into E. coli XL10-Gold cells for each experiment. A single colony was used to inoculate 5 ml LB + Amp media and incubated at 37 °C, 225 r.p.m. overnight. Overnight cultures were diluted 1/250 or 1/500 in 5 ml M9 minimal media + Amp and incubated at 37 °C, 225 r.p.m. for 3 h and 45 min (until OD600 = ~0.075). Cultures were diluted down to OD600 = 0.05 with M9 minimal media + Amp, and 200 µl was added to wells of a 96-well plate containing 1 µl IV-HSL dissolved in DMSO or 1 µl BjaI CFPS reactions (IV-HSL concentrations obtained from serial dilution from 63.2 µM to 632 pM; final DMSO concentration = 0.5%). Cells were incubated at 37 °C, 800 r.p.m., in a thermomixer with a heated lid for 4 h. Fluorescence and OD600 were measured in a Tecan M1000 infinite plate reader (excitation, 488 nm; emission, 510 nm; bandwidth, 5 nm; gain, 101 and z position, 21,311 µm). The dose–response curves were fitted to the function indicated by Eq. (1), where a = maximal fluorescence output, b = basal fluorescence output, X = concentration of AHSL, GFP = fluorescence at the given condition, EC50 = AHSL at 50% maximal fluorescence output and h = hill coefficient. EC50 and h were derived using the nonlinear regression model based on Eq. (1), in MATLAB. A summary of the dose–response data is available in Supplementary Table 1.1 GFP=b+a−b/1+10^logEC50−X×h

[2] = tested on: BjaRWT (B0034|ATG) receiver cells (pSB1A3–bjaR–gfp); test: as above
Text: as §1, §2

[3] = tested on: BjaRS107R (B0034|CTG) receiver cells; test: IV-HSL biosynthesis by BjaI in bulk CFPS reactions, quantified with receiver cells; conditions: 80 µM IV-CoA, 300 µM SAM, 37 °C, 5 h
Method: We first validated bjaI expression using bulk CFPS reactions containing (^35S)-methionine to visualize the newly synthesized protein. The full-length BjaI protein (25 kDa) was successfully translated, and its expression was not influenced by the presence of SAM and IV-CoA (Fig. 4b). To establish whether the BjaI was enzymatically active, CFPS reactions containing 80 µM IV-CoA and 300 µM SAM were incubated at 37 °C for 5 h, and then serially diluted and incubated with BjaRS107R (B0034|CTG) receiver cells. Indeed, IV-HSL was successfully synthesized within the CFPS reactions as the reaction mixture containing the complete set of components (bjaI DNA + SAM + IV-CoA) fully activated gfp expression in the receivers, while no fluorescence output was observed from CFPS reactions containing SAM and IV-CoA, but without bjaI DNA template (Fig. 4c,d). […] Similarly, on transferring this system inside GUVs, BjaI-producing synthetic cells also synthesized sufficient IV-HSL to fully activate gfp expression in BjaRS107R (B0033|ATG) receiver cells. […]
In total, 3 µl CFPS reactions were prepared using PURExpress with 0.8 U µl^−1 murine RNase inhibitor, 5 ng µl^−1 linear bjaI DNA template and 300 µM SAM and 80 µM IV-CoA, as indicated. […] OD600 and fluorescence were measured using a Tecan infinite M1000 plate reader (Ex, 488 nm; Em, 510 nm; bandwidth, 5 nm; z position, 23,179 µm and gain, 101).

[4] = tested on: BjaRS107R (B0033|ATG) receiver cells; test: IV-HSL biosynthesis by BjaI-expressing synthetic cells (GUVs), quantified with receiver cells
[5] = 0.5× PURExpress, without murine RNase inhibitor, 50 mM sucrose

## CC(C)CC(=O)N[C@H]1CCOC1=O [IV-HSL, N-isovaleryl-L-homoserine lactone]
[1]; Log([ASHL]) -6.5
  OD600: 0.3306 and 0.3621 and 0.2891
[1]; Log([ASHL]) -7
  OD600: 0.3381 and 0.3609 and 0.3016
[1]; Log([ASHL]) -7.5
  OD600: 0.3398 and 0.371 and 0.3048
[1]; Log([ASHL]) -8
  OD600: 0.362 and 0.2933 and 0.3353
[1]; Log([ASHL]) -8.5
  OD600: 0.3639 and 0.2941 and 0.3444
[1]; Log([ASHL]) -9
  OD600: 0.3486 and 0.2915 and 0.3248
[1]; Log([ASHL]) -9.5
  OD600: 0.3475 and 0.2972 and 0.3208
[1]; Log([ASHL]) -10
  OD600: 0.3471 and 0.28 and 0.3178
[1]; Log([ASHL]) -10.5
  OD600: 0.3456 and 0.2865 and 0.316
[1]; Log([ASHL]) -11
  OD600: 0.3415 and 0.2834 and 0.3206
[1]; Log([ASHL]) -11.5
  OD600: 0.3371 and 0.3126 and 0.2784
[2]; Log([ASHL]) -6.5
  OD600: 0.1407 and 0.1426 and 0.1342
[2]; Log([ASHL]) -7
  OD600: 0.1411 and 0.1451 and 0.131
[2]; Log([ASHL]) -7.5
  OD600: 0.1331 and 0.1386 and 0.1217
[2]; Log([ASHL]) -8
  OD600: 0.1336 and 0.1241 and 0.1283
[2]; Log([ASHL]) -8.5
  OD600: 0.1339 and 0.1207 and 0.1286
[2]; Log([ASHL]) -9
  OD600: 0.1331 and 0.1177 and 0.1275
[2]; Log([ASHL]) -9.5
  OD600: 0.1411 and 0.1167 and 0.1286
[2]; Log([ASHL]) -10
  OD600: 0.1334 and 0.1176 and 0.1288
[2]; Log([ASHL]) -10.5
  OD600: 0.1328 and 0.1169 and 0.1254
[2]; Log([ASHL]) -11
  OD600: 0.1305 and 0.1181 and 0.12
[2]; Log([ASHL]) -11.5
  OD600: 0.1288 and 0.108 and 0.1174
[3]
  IV-HSL generated in bulk CFPS reactions: 17.9 ± 2.6 pmol/µL
[3]; estimated from receiver cell fluorescence
  IV-HSL concentration in bulk BjaI CFPS reaction: 17.9 ± 2.6 µM
[4]; [5]
  IV-HSL produced by GUVs: 32.5 ± 13.6 nM
  IV-HSL produced per inner solution: 0.16 ± 0.068 pmol µl^−1 inner solution
[4]; 1× PURExpress GUVs
  IV-HSL generated by the GUVs: 2.28 ± 0.60 pmol/µL
[4]; 1× PURExpress GUVs, 25 µl samples
  IV-HSL concentration in synthetic cell samples: 458.5 ± 119.6 nM
